From publication PMC12607013
Numbering of substitutions follows the chain as printed. These are yes or no findings as the source states them, for the method shown. Binding seen in cells or lysates may run through a third protein. Some entries that bind do so weakly or less than the wild type. Tags and fused reporters may be left off the sequences shown.

Amino acid sequences for entries named in this document (tags omitted).
UniProt Q93009: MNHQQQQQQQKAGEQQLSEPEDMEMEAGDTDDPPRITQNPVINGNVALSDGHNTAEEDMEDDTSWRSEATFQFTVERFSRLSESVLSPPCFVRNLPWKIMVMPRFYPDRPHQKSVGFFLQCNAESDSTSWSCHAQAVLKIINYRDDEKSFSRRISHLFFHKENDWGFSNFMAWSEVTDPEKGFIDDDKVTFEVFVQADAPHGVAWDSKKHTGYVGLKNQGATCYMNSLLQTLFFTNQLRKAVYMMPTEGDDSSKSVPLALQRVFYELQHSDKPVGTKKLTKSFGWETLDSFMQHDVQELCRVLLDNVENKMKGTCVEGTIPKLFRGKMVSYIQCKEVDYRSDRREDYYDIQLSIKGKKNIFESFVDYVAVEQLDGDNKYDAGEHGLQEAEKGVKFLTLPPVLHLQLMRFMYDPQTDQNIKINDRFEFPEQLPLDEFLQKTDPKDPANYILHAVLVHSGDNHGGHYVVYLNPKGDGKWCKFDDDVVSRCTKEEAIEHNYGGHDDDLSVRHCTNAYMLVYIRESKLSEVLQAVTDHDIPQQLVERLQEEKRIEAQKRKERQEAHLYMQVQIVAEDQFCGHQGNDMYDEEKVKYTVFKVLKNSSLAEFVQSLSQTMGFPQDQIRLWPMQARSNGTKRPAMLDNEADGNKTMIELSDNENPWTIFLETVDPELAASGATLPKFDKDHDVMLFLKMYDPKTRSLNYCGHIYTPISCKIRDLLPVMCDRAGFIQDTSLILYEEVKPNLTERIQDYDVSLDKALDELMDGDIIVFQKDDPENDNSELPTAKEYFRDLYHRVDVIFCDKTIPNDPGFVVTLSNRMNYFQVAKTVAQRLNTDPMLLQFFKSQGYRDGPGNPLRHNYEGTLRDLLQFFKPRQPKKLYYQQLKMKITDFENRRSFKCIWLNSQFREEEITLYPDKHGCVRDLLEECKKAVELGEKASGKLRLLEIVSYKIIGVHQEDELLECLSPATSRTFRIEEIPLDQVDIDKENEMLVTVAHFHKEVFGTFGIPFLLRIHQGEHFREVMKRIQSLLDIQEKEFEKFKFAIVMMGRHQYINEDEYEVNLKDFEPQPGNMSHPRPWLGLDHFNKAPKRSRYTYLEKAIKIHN

Tests used:
[1] = molecular target: T1, FLAG-tagged full-length OTUD4 (ovarian tumor family deubiquitinase 4), WT (human) (UniProt Q01804); assay: co-IP; HEK293T cells transfected with the indicated plasmids, 48 to 72 h; clarified lysates incubated overnight at 4 °C with anti-FLAG M2-agarose or anti-HA-agarose beads; Western blot
T1 sequence: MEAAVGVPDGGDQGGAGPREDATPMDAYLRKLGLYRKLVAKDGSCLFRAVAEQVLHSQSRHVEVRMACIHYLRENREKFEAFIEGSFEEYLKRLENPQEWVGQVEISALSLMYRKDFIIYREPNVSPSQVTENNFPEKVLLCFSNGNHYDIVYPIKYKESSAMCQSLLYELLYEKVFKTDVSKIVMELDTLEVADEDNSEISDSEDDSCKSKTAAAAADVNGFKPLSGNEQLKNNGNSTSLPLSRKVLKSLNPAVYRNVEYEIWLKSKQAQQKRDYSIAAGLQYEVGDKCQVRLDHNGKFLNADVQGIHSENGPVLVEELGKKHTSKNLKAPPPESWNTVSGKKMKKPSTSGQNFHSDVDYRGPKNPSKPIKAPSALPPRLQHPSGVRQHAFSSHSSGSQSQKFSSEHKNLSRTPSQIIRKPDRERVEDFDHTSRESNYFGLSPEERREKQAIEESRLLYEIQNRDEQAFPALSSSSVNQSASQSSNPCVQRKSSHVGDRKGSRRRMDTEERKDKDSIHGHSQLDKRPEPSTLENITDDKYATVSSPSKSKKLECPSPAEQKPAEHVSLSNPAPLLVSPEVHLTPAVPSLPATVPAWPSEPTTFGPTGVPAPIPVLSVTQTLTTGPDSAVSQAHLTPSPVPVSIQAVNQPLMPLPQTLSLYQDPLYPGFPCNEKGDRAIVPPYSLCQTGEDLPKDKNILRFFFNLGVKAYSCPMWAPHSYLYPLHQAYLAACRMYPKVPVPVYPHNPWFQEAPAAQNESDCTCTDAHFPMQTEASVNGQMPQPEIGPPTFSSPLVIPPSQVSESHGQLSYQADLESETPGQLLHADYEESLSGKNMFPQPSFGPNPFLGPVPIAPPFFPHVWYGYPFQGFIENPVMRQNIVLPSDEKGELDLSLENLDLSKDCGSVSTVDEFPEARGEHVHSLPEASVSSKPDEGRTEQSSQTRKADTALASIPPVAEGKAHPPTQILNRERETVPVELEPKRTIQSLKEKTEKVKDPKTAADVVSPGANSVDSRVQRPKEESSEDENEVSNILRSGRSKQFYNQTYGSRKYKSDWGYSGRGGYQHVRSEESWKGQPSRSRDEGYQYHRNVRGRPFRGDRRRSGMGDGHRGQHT

[2] = molecular target: T2, FLAG-tagged full-length OTUD4 H148A (histidine-to-alanine substitution control) (human) (UniProt Q01804); assay: as above
T2 sequence: T1 sequence with H148A

- binding [1]: binds
- binding [2]: binds
Substance: USP7 (from UniProt Q93009 1-1102) (enzyme)
